Experimental findings from patent US20250090441A1 (THE UNIVERSITY OF HONG KONG, priority 2023, published 2025) are described below.

Series [1] is described as follows: general procedure: Fmoc solid-phase peptide synthesis. Conditions: whole synthesis, HPLC area percentage of major peak, several disulfide bridges, sequence written open.
Series [2] can be described thus: Remineralizing effects on enamel, chemical pH cycling model (SEM-EDS, Micro-CT, XRD). Also on record: species or system human. Conditions: 160 μM, after pH cycling. How it is done:
Ten enamel slices were cut from extracted sound human molars. Each slice was separated into four blocks. A total of 40 enamel blocks were prepared. Then the surface of the enamel block was half-covered by an acid-resistant varnish. The exposed half was the experimental surface, and the varnished half was the internal control. Before use, all the enamel blocks were sterilized via autoclave (Niu et al. 2021d; Yu et al. 2018).
The pH-cycling procedure (16 h-demineralization at pH 4.5 and 8 h-remineralization at pH 7.0) was performed to enamel blocks for 8 days. The formula for demineralizing/remineralizing solution was employed from a previous study (Yu et al. 2018). […]
The structure of the enamel surface was examined using SEM (n=8 per group) (Niu et al. 2021d). […] The calcium to phosphorus molar ratio was calculated (Niu et al. 2022). The mineral loss and lesion depth on the enamel blocks were assessed using microcomputed tomography (Micro-CT) (1076, SkyScan, Antwerp, Belgium) (n=8 per group) (Niu et al. 2022). The diffraction patterns of the enamel blocks were evaluated using X-ray diffraction analysis (XRD) (Rigaku SmartLab 9 kW, […]) (n=2 per group) (Yu et al. 2018).

For some assays here: Where a sequence shows no end group, the ends are not given. Where a SMILES comes first, the peptide text is derived from it.

As to RRWCFRVCYRGFCYRKCR, in series [1], the “purity (crude or final not stated)” value worked out at 96.91%.
Turning to `CC(C)[C@@H]1NC(=O)[C@H](CCCN=C(N)N)NC(=O)[C@H](Cc2ccccc2)NC(=O)[C@@H](NC(=O)[C@H](Cc2c[nH]c3ccccc23)NC(=O)[C@H](CCCN=C(N)N)NC(=O)[C@H](CCCN=C(N)N)NC(=O)c2cc(O)c(O)c(O)c2)CSSC[C@@H](C(=O)N[C@@H](CCCN=C(N)N)C(=O)O)NC(=O)[C@H](CCCCN)NC(=O)[C@H](CCCN=C(N)N)NC(=O)[C@H](Cc2ccc(O)cc2)NC(=O)[C@@H]2CSSC[C@H](NC1=O)C(=O)N[C@@H](Cc1ccc(O)cc1)C(=O)N[C@@H](CCCN=C(N)N)C(=O)NCC(=O)N[C@@H](Cc1ccccc1)C(=O)N2` [GAPI, Gallic-Acid-Polyphemusin-I] (HELM PEPTIDE1{[O=C(c1cc(O)c(O)c(O)c1)[*:2]].R.R.W.C.F.R.V.C.Y.R.G.F.C.Y.R.K.C.R}$PEPTIDE1,PEPTIDE1,5:R3-18:R3|PEPTIDE1,PEPTIDE1,9:R3-14:R3$$$V2.0), the “X-ray diffraction reflection peak at full width and half maximum” value in series [2] is 0.237 °.
